{"source": "PubChem BioAssay AID1259254 (NCATS, 2017)", "test": "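Genome-wide screen for genes that prevent DNA re-replication in cancer cells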 (primary screen)", "cell system": "human HCT116 colorectal cancer cells", "knock-down reagent": "single siRNA against human genes", "timing": "3 days", "detection": "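Nuclei stained with Hoechst and imaged; cell-cycle phase assigned by DNA content; G2 share scaled per plate, non-targeting siRNA 0%, GMNN siRNA 100%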", "direction": "G2 robust z-score and G2 cells, % of GMNN control: higher = more G2 cells, more excess DNA replication", "call rule": "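An siRNA counts as active if its G2 robust z-score lies at least 5 MADs above the screen median; here such calls match roughly 38% of GMNN control or more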", "note": "The whole screen tested about 59,000 reagents; shown is a random part of them. In the full data, about 1,550 (2.6%) are marked active. 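G2 share is only a proxy for re-replication; each gene was hit by three separate siRNAs, and active genes were retested.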 A number with no mark means an inactive call. Reagents against one gene are numbered here. Not all columns of the deposit are shown. Not given: the amount of reagent."}
{"gene symbol":"CLDN14 (GeneID 23562)","reagent":1,"G2 robust z-score":-0.431,"G2 cells, % of GMNN control":-0.0627}
{"gene symbol":"CLDN14 (GeneID 23562)","reagent":2,"G2 robust z-score":1.23,"G2 cells, % of GMNN control":11.6}
{"gene symbol":"CLDN14 (GeneID 23562)","reagent":3,"G2 robust z-score":0.00234,"G2 cells, % of GMNN control":2.98}
{"gene symbol":"GPR161 (GeneID 23432)","reagent":1,"G2 robust z-score":2.01,"G2 cells, % of GMNN control":17.1}
{"gene symbol":"GPR161 (GeneID 23432)","reagent":2,"G2 robust z-score":-1.01,"G2 cells, % of GMNN control":-4.13}
{"gene symbol":"GPR161 (GeneID 23432)","reagent":3,"G2 robust z-score":-1.49,"G2 cells, % of GMNN control":-7.52}
{"gene symbol":"DNAJC3 (GeneID 5611)","reagent":1,"G2 robust z-score":0.212,"G2 cells, % of GMNN control":4.46}
{"gene symbol":"DNAJC3 (GeneID 5611)","reagent":2,"G2 robust z-score":1.02,"G2 cells, % of GMNN control":10.1}
{"gene symbol":"DNAJC3 (GeneID 5611)","reagent":3,"G2 robust z-score":1.46,"G2 cells, % of GMNN control":13.2}
{"gene symbol":"KCNH8 (GeneID 131096)","reagent":1,"G2 robust z-score":1.81,"G2 cells, % of GMNN control":15.7}
{"gene symbol":"KCNH8 (GeneID 131096)","reagent":2,"G2 robust z-score":-0.665,"G2 cells, % of GMNN control":-1.71}
{"gene symbol":"KCNH8 (GeneID 131096)","reagent":3,"G2 robust z-score":-0.75,"G2 cells, % of GMNN control":-2.31}
{"gene symbol":"ERAP1 (GeneID 51752)","reagent":1,"G2 robust z-score":-0.582,"G2 cells, % of GMNN control":-1.12}
{"gene symbol":"ERAP1 (GeneID 51752)","reagent":2,"G2 robust z-score":-1.31,"G2 cells, % of GMNN control":-6.28}
{"gene symbol":"ERAP1 (GeneID 51752)","reagent":3,"G2 robust z-score":0.898,"G2 cells, % of GMNN control":9.29}
{"gene symbol":"ACTR3B (GeneID 57180)","reagent":1,"G2 robust z-score":0.862,"G2 cells, % of GMNN control":9.03}
{"gene symbol":"ACTR3B (GeneID 57180)","reagent":2,"G2 robust z-score":3.67,"G2 cells, % of GMNN control":28.8}
{"gene symbol":"ACTR3B (GeneID 57180)","reagent":3,"G2 robust z-score":-0.0664,"G2 cells, % of GMNN control":2.5}
{"gene symbol":"PRRG4 (GeneID 79056)","reagent":1,"G2 robust z-score":0.592,"G2 cells, % of GMNN control":7.14}
{"gene symbol":"PRRG4 (GeneID 79056)","reagent":2,"G2 robust z-score":0.234,"G2 cells, % of GMNN control":4.61}
{"gene symbol":"PRRG4 (GeneID 79056)","reagent":3,"G2 robust z-score":-0.34,"G2 cells, % of GMNN control":0.574}
{"gene symbol":"RPS6KB2 (GeneID 6199)","reagent":1,"G2 robust z-score":-0.209,"G2 cells, % of GMNN control":1.5}
{"gene symbol":"RPS6KB2 (GeneID 6199)","reagent":2,"G2 robust z-score":0.221,"G2 cells, % of GMNN control":4.52}
{"gene symbol":"RPS6KB2 (GeneID 6199)","reagent":3,"G2 robust z-score":-0.41,"G2 cells, % of GMNN control":0.0832}
{"gene symbol":"CIBAR1P2 (GeneID 403315)","reagent":1,"G2 robust z-score":0.0168,"G2 cells, % of GMNN control":3.09}
{"gene symbol":"CIBAR1P2 (GeneID 403315)","reagent":2,"G2 robust z-score":-0.819,"G2 cells, % of GMNN control":-2.8}
{"gene symbol":"CIBAR1P2 (GeneID 403315)","reagent":3,"G2 robust z-score":0.315,"G2 cells, % of GMNN control":5.18}
{"gene symbol":"SLC12A7 (GeneID 10723)","reagent":1,"G2 robust z-score":-0.996,"G2 cells, % of GMNN control":-4.04}
{"gene symbol":"SLC12A7 (GeneID 10723)","reagent":2,"G2 robust z-score":0.216,"G2 cells, % of GMNN control":4.49}
{"gene symbol":"SLC12A7 (GeneID 10723)","reagent":3,"G2 robust z-score":-1.33,"G2 cells, % of GMNN control":-6.38}

Reprinted from above, 5 entries:
{"gene symbol":"KCNH8 (GeneID 131096)","reagent":1,"G2 robust z-score":1.81,"G2 cells, % of GMNN control":15.7}
{"gene symbol":"KCNH8 (GeneID 131096)","reagent":2,"G2 robust z-score":-0.665,"G2 cells, % of GMNN control":-1.71}
{"gene symbol":"KCNH8 (GeneID 131096)","reagent":3,"G2 robust z-score":-0.75,"G2 cells, % of GMNN control":-2.31}
{"gene symbol":"ERAP1 (GeneID 51752)","reagent":1,"G2 robust z-score":-0.582,"G2 cells, % of GMNN control":-1.12}
{"gene symbol":"ERAP1 (GeneID 51752)","reagent":2,"G2 robust z-score":-1.31,"G2 cells, % of GMNN control":-6.28}
